# Results of single-concentration screens

From ChEMBL document CHEMBL3988442, “University of Dundee, Small-Polar-MMV Screening Library” (2021).

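Assay of Toxoplasma gondii numbers, read through their beta-galactosidase reporter with a colour substrate. Tested at 10 µM. Higher reads as fewer parasites (inferred from which compounds were picked for retests). About 67,000 compounds were tested under these conditions; 0.38% (about 260) showed 50% or more at least once.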

Results are given as percent effect.
The controls that fix the scale are not given in the record; negative values are as filed.
Compounds were drawn at random from those tested, without regard to their results.

- CC(=O)N1CCN(C(=O)c2cccc(OCc3cscn3)c2)CC1 : -25.35%
- CCN1CCc2c(cccc2NC(=O)CN(C)C2CCSC2)C1 (stereo not drawn) : 0.2282%
- CCc1c(C(=O)N2CCN(c3cnccn3)CC2)cnn1C(C)(C)C : -3.735%
- Cc1nnc(CCNC(=O)c2coc(CN3CCOCC3)c2)s1 : 4.6%
- O=C(NCCNc1ncccn1)N1CCN(Cc2cccnc2)CC1 : 4.308%
- O=C(c1ccsc1)N1CCc2ncc(Cn3cncn3)n2CC1 : -55.89%
- O=C(O)C(F)(F)F.[H][C@]12CCN(CC(C)C)CC[C@@]1([H])S(=O)(=O)CCN2C(C)=O : -9.942%
- CCC(c1ccc(F)cc1F)S(=O)(=O)CCO (stereo not drawn) : -1.861%
- CN(CCc1cnn(C)c1)C(=O)Cn1c(=O)[nH]c2ccccc21 : 6.653%
- COC1CCN(S(=O)(=O)N2CC[C@@](O)(C3CCC3)[C@H](C)C2)CC1 : 1.385%
- CN1CCCC(c2cccc(-c3cccc(C(F)(F)F)c3)n2)C1 (stereo not drawn) : -12.82%
- Cc1cc(C)nc(N2CCC(OCCN3CCCCC3)C2)n1 (stereo not drawn) : -3.856%
- Fc1ccc(-c2nc(CN3CCOC(Cn4cccn4)C3)co2)cc1 (stereo not drawn) : 10.19%
- COCCN(Cc1ccoc1)C(=O)c1c(F)cccc1Cl : -3.104%
- CC(c1ccc2c(c1)OCCO2)N(C)C(=O)c1ccnnc1 (stereo not drawn) : -1.627%
- COCCC1(CO)CCCN(C(=O)c2cc(C#N)c(=O)[nH]c2C)C1 (stereo not drawn) : -8.166%
- FC(F)(F)c1csc(N2CCN(Cc3ccccn3)CC2)n1 : -8.065%
- Fc1ccc(COCC2CCN(Cc3ccccn3)CC2)cc1.O=C(O)C(=O)O : -12.61%
- CCN1CCC(NC(=O)CN2CCCC2Cn2cc(C)cn2)CC1 (stereo not drawn) : -1.657%
- Cn1cc(C(=O)NC2CCN(C(=O)NCC3CCSCC3)CC2)cn1 : -1.294%
- COC(=O)C1CCN(C(=O)c2cc(Br)ccc2-n2cnnn2)CC1 : -0.2472%
- CCC(C)NS(=O)(=O)c1ccc(C(=O)NC2(C#N)CCC2)cc1 (stereo not drawn) : -23.55%
- CCCNCC1(O)CCCN(Cc2cccc(C)c2)C1=O (stereo not drawn) : 7.991%
- COc1ccc(Cl)cc1CCNC(=O)NCc1noc(C)n1 : 12.97%
- C/N=C1\c2cc3cc(OC)ccc3n2CCN1Cc1ccccc1.O=C(O)C(F)(F)F : 31.4%
- CCC(=O)Nc1cc(Br)cnc1OCC(F)(F)F : -0.3601%
- O=C(c1cccc(C(F)(F)F)c1)N1CC(=O)N(C2CCC2)CC(O)C1 (stereo not drawn) : -3.185%
- CCNc1cc2c(nn1)CCN(C(=O)c1cc3c(s1)CCOC3)C2 : -8.824%
- CN1CCC(N(C)C[C@H]2CC[C@@H](Cc3cccc(CO)c3)O2)CC1 : -65.21%
- C[C@]1(O)CCN(Cc2ncccc2F)C[C@@H]1Oc1cccc(F)c1 : 7.966%
- Cl.Cl.Cn1cc(CN2CCc3c(CNC(=O)C4CC4)cncc3C2)cn1 : 5.606%
- CCN1Cc2nc(OC)c(CNC(=O)C3CCS(=O)(=O)CC3)cc2C1=O : -8.348%
- Cc1cc(C)n(CC2CCN(CC(O)CN3CCOCC3)CC2)n1 (stereo not drawn) : 18.18%
- CCCOCCn1ncc(N2CCCC2)cc1=O : -16.61%
- CCc1cn[nH]c1C1CCCN(C(=O)c2cc(C#N)c(=O)[nH]c2C)C1 (stereo not drawn) : -1.061%
- Cc1ccc(C)c(NC(=O)c2n[nH]c(-n3cnnc3)n2)c1 : 4.662%
- CNc1nc(CS(=O)(=O)c2ccccc2)cs1 : -1.233%

Once more, the final 3:

Compound,percent effect
CCc1cn[nH]c1C1CCCN(C(=O)c2cc(C#N)c(=O)[nH]c2C)C1 (stereo not drawn),-1.061%
Cc1ccc(C)c(NC(=O)c2n[nH]c(-n3cnnc3)n2)c1,4.662%
CNc1nc(CS(=O)(=O)c2ccccc2)cs1,-1.233%